# Data as given in patent publication US12428360B2, “Abating unwanted emulsion polymerization during extractive distillation of conjugated diene monomers” (ECOLAB USA INC., priority 2022, dated 2025).
# For at least one compound, name, drawing or mass did not settle the structure.
# What was measured:
# [1] = Partition coefficient between DMF and hexane; assay type: physicochemical; details: ratio DMF:hexane
# [2] = Partition coefficient between toluene and water; assay type: physicochemical; details: ratio toluene:water
smiles,measurement,setting,value
"CC(=O)OC1CC(C)(C)N([O])C(C)(C)C1 [Ester of HTEMPO 1, 4-acetoxyl-2,2′6,6′-tetramethylpiperidinyl-1-oxyl]",Partition Coefficient between DMF and Hexane,[1],82:18
same,Partition Coefficient between toluene and water,[2],92:8
